From article PMC7862700
Only a part is listed here, and it is no random draw. At the low end of the ranking the order means little.

The chains behind the UniProt entries cited, without tags or fusion partners. Where a name states a change or a piece, a line headed by the entry shows the natural chain unless it says otherwise.
UniProt O43186: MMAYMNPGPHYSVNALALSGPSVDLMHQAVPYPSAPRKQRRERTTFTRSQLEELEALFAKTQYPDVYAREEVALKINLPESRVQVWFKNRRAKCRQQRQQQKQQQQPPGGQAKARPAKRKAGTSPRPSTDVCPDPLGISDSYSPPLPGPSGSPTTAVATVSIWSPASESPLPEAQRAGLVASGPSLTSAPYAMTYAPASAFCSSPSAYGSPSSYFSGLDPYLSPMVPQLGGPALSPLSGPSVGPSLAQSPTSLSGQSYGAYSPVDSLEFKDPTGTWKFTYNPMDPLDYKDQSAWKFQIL

Legend:
Test in all cases: DAPPL (digital affinity profiling via proximity ligation, sequencing)
Settings in all cases: 10 mM Tris-HCl pH 7.5, 50 mM NaCl, 1 mM DTT, 4% glycerol, room temperature, 30 min; GST-TFs on glutathione beads, 16-mer random dsDNA library, 0.1% …; high values mean tight binding; double strand, one strand shown; scale: fold enrichment (6-mer frequency, TF over GST control)
FEV = molecular target: T1, FEV (UniProt Q99581)
T1 sequence: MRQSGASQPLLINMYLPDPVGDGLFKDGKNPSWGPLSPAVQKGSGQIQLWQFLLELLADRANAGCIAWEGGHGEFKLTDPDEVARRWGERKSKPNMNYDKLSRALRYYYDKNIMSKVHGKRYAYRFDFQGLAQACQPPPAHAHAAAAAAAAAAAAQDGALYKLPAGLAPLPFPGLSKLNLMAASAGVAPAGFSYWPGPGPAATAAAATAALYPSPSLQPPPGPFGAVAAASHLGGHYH

CRX = CRX (UniProt O43186)
ELF5 = molecular target: T2, ELF5 (UniProt Q9UKW6-2)
T2 sequence: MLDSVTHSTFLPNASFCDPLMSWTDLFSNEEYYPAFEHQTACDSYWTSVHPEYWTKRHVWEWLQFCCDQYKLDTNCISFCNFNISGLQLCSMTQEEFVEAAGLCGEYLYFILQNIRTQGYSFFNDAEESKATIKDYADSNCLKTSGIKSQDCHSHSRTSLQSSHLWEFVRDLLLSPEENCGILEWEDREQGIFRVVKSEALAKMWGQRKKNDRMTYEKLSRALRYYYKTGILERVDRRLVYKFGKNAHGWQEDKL

Row | Sequence | binding signal (FEV) | binding signal (CRX) | binding signal (ELF5)
1 | GTGAGA | 0.315 | 0.264 | 0.296
2 | AGGCGC | 0.563 | 0.493 | 0.536
3 | GGGGGC | 0.582 | 0.468 | 0.581
4 | GAGTGA | 0.425 | 0.338 | 0.382
5 | GCCGGT | 0.679 | 0.498 | 0.583
6 | TGGGCC | 0.898 | 0.657 | 0.815
7 | GTAGAG | 0.536 | 0.492 | 0.557
8 | GTCTGC | 0.929 | 0.643 | 0.844
9 | GAGATT | 0.716 | 1.57 | 0.655
10 | CGTCGG | 0.424 | 0.356 | 0.449
11 | GGGGGG | 0.593 | 0.44 | 0.533
12 | AGCGAG | 0.624 | 0.578 | 0.578
13 | AAGGTG | 0.851 | 0.778 | 0.883
14 | GAGACA | 0.381 | 0.297 | 0.361
15 | AGCGGA | 0.89 | 0.57 | 0.861
16 | GGTCCG | 0.831 | 0.506 | 0.747
17 | GAGGCC | 0.444 | 0.353 | 0.377
18 | ATCCAG | 0.838 | 1.29 | 0.88

Fetched one by one from above, 2 records:
Row | Sequence | binding signal (FEV) | binding signal (CRX) | binding signal (ELF5)
13 | AAGGTG | 0.851 | 0.778 | 0.883
9 | GAGATT | 0.716 | 1.57 | 0.655

Later entries.

Row | Sequence | binding signal (FEV) | binding signal (CRX) | binding signal (ELF5)
19 | CCAGCC | 0.804 | 0.682 | 0.74
20 | GCGCTG | 0.816 | 0.676 | 0.796
21 | GTACGT | 0.834 | 0.651 | 0.818
22 | CGGGTC | 0.681 | 0.462 | 0.788
23 | GTCATA | 0.723 | 0.603 | 0.699
24 | AGTCGG | 0.148 | 0.134 | 0.148
25 | GGGGTG | 0.62 | 0.476 | 0.607
26 | AGCGGG | 0.489 | 0.447 | 0.465
27 | GAGATG | 0.677 | 0.627 | 0.663
28 | GTGTAG | 0.645 | 0.495 | 0.616
29 | GGGACC | 0.685 | 0.459 | 0.613
30 | GGAGTC | 0.211 | 0.171 | 0.204
31 | AGATCG | 0.467 | 0.509 | 0.42
32 | CAGTCG | 0.162 | 0.147 | 0.16
33 | CAGGGC | 0.851 | 0.628 | 0.712
34 | GAGTCA | 0.266 | 0.24 | 0.271
35 | CGTGTT | 0.795 | 0.651 | 0.868
36 | CGAGAG | 0.391 | 0.395 | 0.402
